Consider one compound from publication PMC7880572 (ACS Chemical Neuroscience, 2021).

For series [1] the following is noted: PAMPA.
The nature of series [2]: in vitro. Particulars: PAMPA, pH 7.4. (In PAMPA a lipid-coated filter parts donor from acceptor wells.)

What is called Papp is a coefficient for how fast a substance crosses the barrier. Read a low Papp as poor permeation. Regarding `COc1cc2c(cc1OC)C(=O)C(CC1CCN(Cc3ccccc3)CC1)C2` (centres unmarked) [donepezil, reference compound], the CNS prediction entry in series [1] is given as “CNS+”. Further, the Papp in series [2] was 23.2 ± 2.3 ×10⁻⁶ cm/s.
